# For part of these data: Expression grades refer to the transcript from which the peptide derives; gene names, where given, were looked up from the sequence.
# Experiments:
# [1] = test system: HLA molecules of primary tumors and normal tissue samples; test: Identification and relative quantitation of HLA ligands by LC-MS (peptide presentation on tumor versus normal tissue); design: species or system human; details: cancer entities on which the peptide was found presented (HLA ligands, LC-MS); abbreviations as in title of Table 8
# source genes (mRNA) = test: Expression profiling of genes encoding the peptides (RNAseq, tumor versus normal tissues); design: species or system human; details: source gene of the peptide; for Gene Expression in tumor samples: Highly over-expressed (++): value = tumor type in which the gene is highly over-expressed compared to a panel of normal tissues; for Gene Expression in tumor samples: over-expressed (+): value = tumor type in which the gene is over-expressed compared to a panel of normal tissues
Substance,Peptide Presentation on cancer entities [1],Gene Expression in tumor samples: Highly over-expressed (++) (source genes (mRNA)),Gene Expression in tumor samples: over-expressed (+) (source genes (mRNA))
202: peptide found in GPR143 (gene looked up) (QTDINGGSLK; listed as Homo sapiens) [compound 202],MEL,MEL,
204: peptide found in BTLA (gene looked up) (NVKEAPTEY; listed as Homo sapiens) [compound 204],NSCLCother,CLL,NHL
205: peptide found in BTLA (gene looked up) (RMQEGSEVY; listed as Homo sapiens) [compound 205],MEL,CLL,NHL
206: peptide found in ABCC4 (gene looked up) (RVFVAVTLY; listed as Homo sapiens) [compound 206],"OC, PRCA",PRCA,
208: peptide found in IGF1R (gene looked up) (LLISKAEDY; listed as Homo sapiens) [compound 208],MEL,BRCA,
216: peptide found in HCAR1 (gene looked up) (NSMLDPLVY; listed as Homo sapiens) [compound 216],"BRCA, HNSCC, NSCLCsquam, UBC",BRCA,UBC
218: peptide found in ROS1 (gene looked up) (FTAQLQLY; listed as Homo sapiens) [compound 218],GBC,NSCLCadeno,"NSCLCother, NSCLCsquam"
229: peptide found in ABCB11 (gene looked up) (MTDVFIDY; listed as Homo sapiens) [compound 229],NSCLCsquam,,HCC
232: peptide found in CXCR3 (gene looked up) (RYLNIVHATQLY; listed as Homo sapiens) [compound 232],CLL,,CLL
248: peptide found in CDK6 (gene looked up) (VTDIDELGK; listed as Homo sapiens) [compound 248],GBM,,AML
252: peptide found in ADCY8 (gene looked up) (DTTSHTYLQY; listed as Homo sapiens) [compound 252],OSCAR,,GBM
256: peptide found in MET (gene looked up) (HAFESNNFIY; listed as Homo sapiens) [compound 256],GBC,,GBC and NSCLCadeno
257: peptide found in MET (gene looked up) (KSEMNVNMKY; listed as Homo sapiens) [compound 257],"BRCA, GBC, NSCLCsquam, PRCA, UEC",,GBC and NSCLCadeno
266: peptide found in TTPA (gene looked up) (LTDSFLLRF; listed as Homo sapiens) [compound 266],HCC,,HCC
268: peptide found in ABCC4 (gene looked up) (AILHHLYFY; listed as Homo sapiens) [compound 268],BRCA,,PRCA
280: peptide found in MET (gene looked up) (TTEMVSNESVDY; listed as Homo sapiens) [compound 280],GBC,,GBC and RCC
